Measured values published in patent US8461328B2, “Tricyclic heterocyclic compounds, compositions and methods of use thereof” (Genentech, Inc., priority 2010, dated 2013).
Some entries share one result that the patent states for a list of compounds.

The chains behind the UniProt entries cited, without tags or fusion partners. Residues count along the entry.
UniProt P23458, 852-1154: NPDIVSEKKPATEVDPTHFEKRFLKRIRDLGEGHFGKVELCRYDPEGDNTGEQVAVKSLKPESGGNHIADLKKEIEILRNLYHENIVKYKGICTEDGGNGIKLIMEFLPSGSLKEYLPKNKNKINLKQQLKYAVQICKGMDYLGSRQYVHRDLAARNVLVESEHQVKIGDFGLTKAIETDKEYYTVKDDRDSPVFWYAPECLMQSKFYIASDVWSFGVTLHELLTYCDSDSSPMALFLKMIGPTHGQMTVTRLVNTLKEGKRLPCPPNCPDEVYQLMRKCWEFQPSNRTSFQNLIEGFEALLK

Molecular target: T1, human JAK1 kinase domain (Homo sapiens, UniProt P23458)
T1 construct: made in house; host or cells: SF9 insect cells (baculovirus)
Assay: JAK1 inhibition assay (Example B), Caliper LabChip peptide phosphorylation
Assay type: biochemical
Settings: 1.5 nM JAK1, 25 μM ATP, Morrison tight binding model; read-out: Ki in a JAK1 kinase activity assay (Example B)

SMILES | Ki [nM]
CS(=O)(=O)CC[C@H]1CC[C@H](n2c(CO)nc3cnc4[nH]ccc4c32)CC1 [Example 652, Trans {1-[4-(2-methanesulfonyl-ethyl)-cyclohexyl]-1,6-dihydro-1,2,3,5,6-tetraaza-as-indacen-2-yl}-methanol] | < 500
C[C@@H](O)c1nc2cnc3[nH]ccc3c2n1[C@H]1CC[C@@H](n2cncn2)CC1 [Example 653, Cis (R)-1-[1-(4-[1,2,4]triazol-1-yl-cyclohexyl)-1,6-dihydro-1,2,3,5,6-tetraaza-as-indacen-2-yl]-ethanol] | < 500
CC(C)(C)OC(=O)N1CCC(n2c(NCCO)nc3cnc4[nH]ccc4c32)CC1 [Example 654, 4-[(2-Hydroxy-ethylamino)-6H-1,2,3,5,6-tetraaza-as-indacen-1-yl]-piperidine-1-carboxylic acid tert-butyl ester] | < 500
COc1nc2cnc3[nH]ccc3c2n1C1CCN(CCC#N)CC1 [Example 655, 3-[4-(2-Methoxy-6H-1,2,3,5,6-tetraaza-as-indacen-1-yl)-piperidin-1-yl]-propionitrile] | < 500
CN(C)c1nc2cnc3[nH]ccc3c2n1C1CCN(CCC#N)CC1 [Example 656, 3-[4-(2-Dimethylamino-6H-1,2,3,5,6-tetraaza-as-indacen-1-yl)-piperidin-1-yl]-propionitrile] | < 500
COCCNc1nc2cnc3[nH]ccc3c2n1C1CCNCC1 [Example 657, (2-Methoxy-ethyl)-(1-piperidin-4-yl-1,6-dihydro-1,2,3,5,6-tetraaza-as-indacen-2-yl)-amine] | < 500
CNc1nc2cnc3[nH]ccc3c2n1C1CCN(CC(F)(F)F)CC1 [Example 658, Methyl-{1-[1-(2,2,2-trifluoro-ethyl)-piperidin-4-yl]-1,6-dihydro-1,2,3,5,6-tetraaza-as-indacen-2-yl}-amine] | < 500
C[C@@H](O)c1nc2cnc3[nH]ccc3c2n1[C@@H]1CCCN(C(=O)CC#N)C1 [Example 661, 3-{(R)-3-[2-((R)-1-Hydroxy-ethyl)-6H-1,2,3,5,6-tetraaza-as-indacen-1-yl]-piperidin-1-yl}-3-oxo-propionitrile] | < 500
C[C@H](O)c1nc2cnc3[nH]ccc3c2n1[C@@H]1CCCN(C(=O)CC#N)C1 [Example 662, 3-{(R)-3-[2-((S)-1-Hydroxy-ethyl)-6H-1,2,3,5,6-tetraaza-as-indacen-1-yl]-piperidin-1-yl}-3-oxo-propionitrile] | < 500
C[C@@H](O)c1nc2cnc3[nH]ccc3c2n1[C@@H]1CCCN(CCC#N)C1 [Example 663, 3-{(R)-3-[2-((R)-1-Hydroxy-ethyl)-6H-1,2,3,5,6-tetraaza-as-indacen-1-yl]-piperidin-1-yl}-propionitrile] | < 500
CC(O)c1nc2cnc3[nH]ccc3c2n1C1CCCN(CCF)C1 [Example 664, (R)-1-{1-[(R)-1-(2-Fluoro-ethyl)-piperidin-3-yl]-1,6-dihydro-1,2,3,5,6-tetraaza-as-indacen-2-yl}-ethanol] | < 500
COC(=O)N1CCCC(n2c([C@@H](C)O)nc3cnc4[nH]ccc4c32)C1 (stereo partly drawn) [Example 670, (R)-3-[2-((R)-1-Hydroxy-ethyl)-6H-1,2,3,5,6-tetraaza-as-indacen-1-yl]-piperidine-1-carboxylic acid methyl ester] | < 500
N#CCC(=O)N1CCCC(n2c(CC3CC3)nc3cnc4[nH]ccc4c32)C1 (stereo not drawn) [Example 676, 3-[3-(2-Cyclopropylmethyl-6H-1,2,3,5,6-tetraaza-as-indacen-1-yl)-piperidin-1-yl]-3-oxo-propionitrile] | < 500
CCOC(=O)NCCc1nc2cnc3[nH]ccc3c2n1C1CCN(CC)CC1(F)F (stereo not drawn) [Example 678, {2-[1-(1-Ethyl-3,3-difluoro-piperidin-4-yl)-1,6-dihydro-1,2,3,5,6-tetraaza-as-indacen-2-yl]-ethyl}-carbamic acid ethyl ester] | < 500
CCN1CC[C@@H](n2c(CCNS(=O)(=O)CC)nc3cnc4[nH]ccc4c32)[C@@H](F)C1 [Example 681, Ethanesulfonic acid {2-[1-((3S,4R)-1-ethyl-3-fluoro-piperidin-4-yl)-1,6-dihydro-1,2,3,5,6-tetraaza-as-indacen-2-yl]-ethyl}-amide] | < 500
C[C@@H](O)c1nc2cnc3[nH]ccc3c2n1C1CCN(Cc2ncccc2F)CC1 [Example 682, (R)-1-{1-[1-(3-Fluoro-pyridin-2-ylmethyl)-piperidin-4-yl]-1,6-dihydro-1,2,3,5,6-tetraaza-as-indacen-2-yl}-ethanol] | < 500
CC(C)(C)COCc1nc2cnc3[nH]ccc3c2n1C1CCN(CCC#N)CC1 [Example 683, 3-{4-[2-(2,2-Dimethyl-propoxymethyl)-6H-1,2,3,5,6-tetraaza-as-indacen-1-yl]-piperidin-1-yl}-propionitrile] | < 500
CO[C@H](C)c1nc2cnc3[nH]ccc3c2n1C1CCCCC1 [Example 685, 1-Cyclohexyl-2-((R)-1-methoxy-ethyl)-1,6-dihydro-1,2,3,5,6-tetraaza-as-indacene] | < 500
C[C@@H](O)c1nc2cnc3[nH]ccc3c2n1[C@@H]1CCN(S(C)(=O)=O)C1 [Example 686, (R)-1-[1-((R)-1-Methanesulfonyl-pyrrolidin-3-yl)-1,6-dihydro-1,2,3,5,6-tetraaza-as-indacen-2-yl]-ethanol] | < 500
C[C@@H](O)c1nc2cnc3[nH]ccc3c2n1[C@@H]1CCNC1 [Example 687, (R)-1-((R)-1-Pyrrolidin-3-yl-1,6-dihydro-1,2,3,5,6-tetraaza-as-indacen-2-yl)-ethanol] | < 500
OC[C@@H](O)c1nc2cnc3[nH]ccc3c2n1C1CCCCC1 [Example 688, (S)-1-(1-Cyclohexyl-1,6-dihydro-1,2,3,5,6-tetraaza-as-indacen-2-yl)-ethane-1,2-diol] | < 500
C[C@@H](O)c1nc2cnc3[nH]ccc3c2n1[C@@H]1CCC[C@@H](O)C1 [Example 689, (1R,3R)-3-[2-((R)-1-Hydroxy-ethyl)-6H-1,2,3,5,6-tetraaza-as-indacen-1-yl]-cyclohexanol] | < 500
CC(C)(C)[S+]([O-])NCc1nc2cnc3[nH]ccc3c2n1C1CCCCC1 (stereo not drawn) [Example 690, 2-Methyl-propane-2-sulfinic acid (1-cyclohyl-1,6-dihydro-1,2,3,5,6-tetraaza-as-indacen-2-ylmethyl)-amide] | < 500
CC(CF)N1CCC(n2c([C@@H](C)O)nc3cnc4[nH]ccc4c32)CC1 (stereo partly drawn) [Example 691, 1-{1-[1-(2-Fluoro-1-methyl-ethyl)-piperidin-4-yl]-1,6-dihydro-1,2,3,5,6-tetraaza-as-indacen-2-yl}-ethanol] | < 500
CS(=O)(=O)NCCc1nc2cnc3[nH]ccc3c2n1C1CC2CCC1C2 (stereo not drawn) [Example 694, N-[2-(1-Bicyclo[2.2.1]hept-2-yl-1,6-dihydro-1,2,3,5,6-tetraaza-as-indacen-2-yl)-ethyl]-methanesulfonamide] | < 500
N#CCCN1CCC(n2c(CNCC(F)(F)F)nc3cnc4[nH]ccc4c32)CC1 [Example 695, 3-(4-{2-[(2,2,2-Trifluoro-ethylamino)-methyl]-6H-1,2,3,5,6-tetraaza-as-indacen-1-yl}-piperidin-1-yl)-propionitrile] | < 500
O=S1(=O)CCCN1Cc1nc2cnc3[nH]ccc3c2n1C1CCCCC1 [Example 696, 1-Cyclohyl-2-(1,1-dioxo-1,1,6-isothiazolidin-2-ylmethyl)-1,6-dihydro-1,2,3,5,6-tetraaza-as-indacene] | < 500
